Experimental data as given in article PMC10019781.
Results are given in words; binding and its absence hold for the method and conditions named. Some results given as binding are weak or reduced against the parent protein; the word gives no strength.

Amino acid sequences for entries named in this document (tags omitted).
UniProt Q8I4X0: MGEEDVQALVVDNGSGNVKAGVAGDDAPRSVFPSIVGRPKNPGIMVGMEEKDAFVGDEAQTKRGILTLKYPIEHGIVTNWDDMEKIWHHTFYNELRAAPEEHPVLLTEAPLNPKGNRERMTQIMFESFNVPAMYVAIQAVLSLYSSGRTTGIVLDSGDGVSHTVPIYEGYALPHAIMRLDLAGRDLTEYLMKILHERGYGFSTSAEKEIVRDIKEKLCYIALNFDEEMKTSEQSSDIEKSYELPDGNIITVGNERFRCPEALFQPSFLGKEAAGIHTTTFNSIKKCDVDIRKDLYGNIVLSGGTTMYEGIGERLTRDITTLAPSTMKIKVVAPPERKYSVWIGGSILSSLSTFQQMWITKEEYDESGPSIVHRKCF

Legend:
Plasmodium actin I [1] = target: Plasmodium actin I (UniProt Q8I4X0); assay: negative-stain electron microscopy; polymerized 16 h at 4°C in F-buffer at 20 uM, diluted in F buffer, 2% uranyl acetate; both purified
Plasmodium actin I [2] = target: Plasmodium actin I (UniProt Q8I4X0); assay: pyrene-actin polymerization assay; spontaneous polymerization, pyrene-labelled and unlabelled actin 1:3, 0 to 7 uM, started with 1x F-buffer (4 mM MgCl2, 50 mM KCl, 10 mM EGTA pH 8), 20°C, 2 h; both purified

- binding (Plasmodium actin I [1]): binds
- binding (Plasmodium actin I [2]): binds
Substance: Plasmodium actin I (from UniProt Q8I4X0 1-376)
